Measurements reported in US5413990A, “N-terminus modified analogs of LHRH” (Tap Pharmaceuticals Inc., priority 1993, dated 1995).
At least one compound was matched to its structure with a doubt left. Square brackets hold non-standard residues; d marks the D form. Peptide text beside a SMILES is read from it. * marks the point of attachment. dPhe(4-Cl) = N[C@H](Cc1ccc(Cl)cc1)C(=O)O; d2Nal = N[C@H](Cc1ccc2ccccc2c1)C(=O)O; Cyclohexanecarbonyl = O=C(C1CCCCC1)*; Lys(iPr) = CC(C)NCCCC[C@H](N)C(=O)O; NMeY = CN[C@@H](Cc1ccc(O)cc1)C(=O)O; d3Pal = N[C@H](Cc1cccnc1)C(=O)O; Nicotinoyl = O=C(c1cccnc1)*; X1 = CC(C(=O)*)c1ccc(F)cc1

Molecular target: T1, LHRH (Rattus norvegicus, UniProt P30969)
T1 construct: evaluated in an in vitro test for LHRH antagonist potency (pA2); endogenous in cells; host or cells: pituitary cells (rat, from my own knowledge of the cited method)
T1 sequence (P30969 1-327): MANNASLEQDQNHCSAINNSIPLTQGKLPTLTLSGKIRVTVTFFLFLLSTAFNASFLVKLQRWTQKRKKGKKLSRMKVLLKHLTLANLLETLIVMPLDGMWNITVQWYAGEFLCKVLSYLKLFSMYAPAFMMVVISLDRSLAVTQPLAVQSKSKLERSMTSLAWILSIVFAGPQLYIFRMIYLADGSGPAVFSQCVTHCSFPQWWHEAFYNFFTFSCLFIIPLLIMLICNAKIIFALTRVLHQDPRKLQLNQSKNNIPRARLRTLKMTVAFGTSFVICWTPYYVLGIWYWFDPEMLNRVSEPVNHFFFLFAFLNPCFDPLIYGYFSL
Assay: in vitro test for LHRH antagonist potency (pA2)
Type: cell-based
Conditions: negative logarithm of the antagonist concentration required to shift the response curve produced by the agonist leuprolide to two-fold higher concentration
Protocol: Representative compounds of the present invention were evaluated in an in vitro test for LHRH antagonist potency (pA2). The test employed the method detailed in F. Haviv, et al. J. Med. Chem., 32:2340-2344 (1989). The values of pA2 are the negative logarithms of the concentration of the particular antagonist test compound required to shift the response curve produced by the agonist leuprolide to two-fold higher concentration. (Leuprolide is the LHRH agonist having the structure 5-oxo-Pro^1 -His^2 -Trp^3 -Ser^4 -Tyr^5 -D-Leu^6 -Leu^7 -Arg^8 -Pro^9 -NHEt and is disclosed and claimed in U.S. Pat. No. 4,005,063.) Typically pA2 values of 9.5 or greater are indicative of good LHRH antagonist potency, with values of 10.0 or greater being preferred.

SMILES | pA2
CC(C)C[C@H](NC(=O)[C@@H](CCCCNC(=O)c1cccnc1)NC(=O)[C@H](Cc1ccc(O)cc1)N(C)C(=O)[C@H](CO)NC(=O)[C@@H](Cc1cccnc1)NC(=O)[C@@H](Cc1ccc(Cl)cc1)NC(=O)[C@@H](Cc1ccc2ccccc2c1)NC(=O)C1CCCCC1)C(=O)N[C@@H](CCCCNC(C)C)C(=O)N1CCC[C@H]1C(=O)N[C@H](C)C(N)=O [Example 2h, N-Cyclohexylcarbonyl-D2Nal-D4ClPhe-D3Pal-Ser-NMeTyr-DLys(N-epsilon-Nicotinyl)-Leu-Lys(N-epsilon-Isopropyl)-Pro-DAlaNH 2] (Cyclohexanecarbonyl-[d2Nal][dPhe(4-Cl)][d3Pal]S[NMeY][dK](Nicotinoyl)L[Lys(iPr)]P[dA]-NH2) | 9.95
CC(C)C[C@H](NC(=O)[C@@H](CCCCNC(=O)c1cccnc1)NC(=O)[C@H](Cc1ccc(O)cc1)N(C)C(=O)[C@H](CO)NC(=O)[C@@H](Cc1cccnc1)NC(=O)[C@@H](Cc1ccc(Cl)cc1)NC(=O)[C@@H](Cc1ccc2ccccc2c1)NC(=O)C(C)c1ccc(F)cc1)C(=O)N[C@@H](CCCCNC(C)C)C(=O)N1CCC[C@H]1C(=O)N[C@H](C)C(N)=O (stereo partly drawn) [Example 2n, N-2-(4-Fluorophenyl)propionyl-D2Nal-D4ClPhe-D3Pal-Ser-NMeTyr-DLys(N-epsilon-Nicotinyl)-Leu-Lys(N-epsilon -Isopropyl)-Pro-DAlaNH2] (X1-[d2Nal][dPhe(4-Cl)][d3Pal]S[NMeY][dK](Nicotinoyl)L[Lys(iPr)]P[dA]-NH2) | 10.16
